For at least one entry, the source does not settle the construct or the ends of the probe. At least one result comes from cells or an extract, where the contact may be indirect.
Experiments:
[1] = molecular target: NRF2 (nuclear extract of tBHQ-treated primary SAE cells) (Homo sapiens) (UniProt Q16236); assay: EMSA supershift; conditions: anti-NRF2 antibody, C1 and C2 shifted, 10 mM Tris-HCl pH 8.0, 50 mM KCl, 50 mM NaCl, 1 mM MgCl2, 1 mM EDTA, 5 mM DTT, 2.5% glycerol, 0.3 ug poly dI-dC, 15 fmol probe, 6-8 ug nuclear extract, 10 uL, 15 min, protein in an extract, label: 32P (probe), unlabeled as competitor
[2] = molecular target: NRF2 (nuclear extract of tBHQ-treated primary SAE cells) (Homo sapiens) (UniProt Q16236); assay: competition with a labelled probe; conditions: 50x unlabeled WT oligo competes C1 and C2, tBHQ-treated cells; 10 mM Tris-HCl pH 8.0, 50 mM KCl, 50 mM NaCl, 1 mM MgCl2, 1 mM EDTA, 5 mM DTT, 2.5% glycerol, 0.3 ug poly dI-dC, 15 fmol probe, 6-8 ug nuclear extract, 10 uL, 15 min; protein in an extract; label: 32P (probe), unlabeled as competitor

By UniProt entry, the sequences of proteins in these tests, tags left out.
UniProt Q16236, whole entry: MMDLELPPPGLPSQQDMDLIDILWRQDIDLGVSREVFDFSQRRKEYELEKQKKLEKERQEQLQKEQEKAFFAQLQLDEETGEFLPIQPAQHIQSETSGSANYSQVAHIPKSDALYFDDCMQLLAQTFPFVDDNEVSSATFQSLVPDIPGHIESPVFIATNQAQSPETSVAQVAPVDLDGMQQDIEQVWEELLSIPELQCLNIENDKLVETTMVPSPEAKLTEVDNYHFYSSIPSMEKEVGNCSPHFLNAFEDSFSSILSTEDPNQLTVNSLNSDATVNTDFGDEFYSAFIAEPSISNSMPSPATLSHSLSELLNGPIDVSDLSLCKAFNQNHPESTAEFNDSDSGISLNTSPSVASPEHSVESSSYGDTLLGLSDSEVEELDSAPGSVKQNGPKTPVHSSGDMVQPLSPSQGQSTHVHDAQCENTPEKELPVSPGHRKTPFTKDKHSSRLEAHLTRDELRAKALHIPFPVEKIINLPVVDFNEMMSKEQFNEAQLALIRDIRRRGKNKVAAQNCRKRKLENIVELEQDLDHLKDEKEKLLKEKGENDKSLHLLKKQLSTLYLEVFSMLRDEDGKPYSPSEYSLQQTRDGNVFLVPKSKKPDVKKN

Sequence: CGGTCGCGGTGACGTTTCAGGCAACGCCTCTGCTGT (double strand) [-156/-120 CSE wild type (WT)]
- binding result [1]: binds
- binding result [2]: binds
